# From the supplement of paper PMC3334620
# Over roughly 33,000 sequences, “E-score (-0.5 to 0.5)” has its median near -8e-05; the highest 2% begin near 0.23. The list shows a part of the results.
# Target: T1, Nrg2 (UniProt P38082)
# T1 sequence: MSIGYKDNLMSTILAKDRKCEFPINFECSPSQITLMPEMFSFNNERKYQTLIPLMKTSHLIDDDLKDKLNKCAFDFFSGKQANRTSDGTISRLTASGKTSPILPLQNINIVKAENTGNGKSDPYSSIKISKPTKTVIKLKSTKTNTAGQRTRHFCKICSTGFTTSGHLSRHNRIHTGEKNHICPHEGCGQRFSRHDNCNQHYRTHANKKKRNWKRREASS
# Test: PBM E-score (8-mer binding enrichment) (E-score (-0.5 to 0.5)); higher = stronger / more preferred TF binding
# Details: protein concentration: 100 nM; construct: GST-full length
# Method in brief: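 PURExpress in vitro transcription/translation supplied GST-tagged yeast transcription factors, either full-length or DNA-binding domain. Applied at about 100-200 nM to universal all-10-mer Agilent arrays double-stranded by primer extension, the bound protein was detected with fluorescent anti-GST. E-scores, modified Wilcoxon-Mann-Whitney statistics, were given by the Universal PBM Analysis Suite to ungapped eight-base words pooled with their reverse complements after masliner normalisation.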
row,Sequence,PBM E-score
1,AGGACCGC,0.0225
2,GAAATTTC,0.152
3,GAGTACTA,0.0337
4,CGACTACA,0.072
5,AGCTATAG,-0.23
6,GGGGGTAC,-0.143
7,AGCAAAGA,-0.0188
8,AAAGAGCT,-0.0911
9,AGTTGAAT,0.136
10,CAGCTCGC,0.0988
11,CTGAAAGC,0.126
12,ATGGACTG,-0.0693
13,AATTTCTC,0.143
14,TCCACCAA,0.0692
15,AAGGGATA,0.0928
16,AACCAAGA,0.165
17,CGACAACC,-0.0659
18,GCAAGCGA,0.0941
19,GATTTATA,0.159
20,CGGGCTGC,0.0198
21,CTGGCTAC,-0.167
22,ATGTGTCA,0.12
23,ACAATCCT,0.0925
24,CACATATG,-0.105
25,AACCCTGC,0.134

row,Sequence,PBM E-score
1,CGTAGCTA,0.102
2,AACTCTGG,-0.0749
3,ACCCGCCC,0.103
4,GTACCTAA,-0.138
5,AATAATCC,-0.088
6,TATCCACA,0.131
7,CTATGGAC,0.0434
8,ACGTCTTG,-0.0332
9,ATTGCTGG,-0.166
10,AGTTTCCA,-0.104
11,CGGCTTAA,0.14
12,ACCGTGCG,0.132
13,AACATACA,-0.0232
14,AGCAATAG,-0.152
15,GTTCCTCA,-0.0478
16,AGAGGCTA,-0.248
17,GTAGGCAA,-0.163
18,ACGTCGTG,0.0108
19,GATCTACC,0.0319
20,CCCCACAG,-0.212
21,AAACGTTG,-0.0809
22,CCCGGGTA,0.101
23,AGCGTATG,-0.0204
24,GACTCCTA,-0.159
25,AGCATCGC,-0.0887

row,Sequence,PBM E-score
1,AACGACTT,-0.169
2,CTTAGAAG,-0.0649
3,CATTCTAC,0.0655
4,CAGTCATG,-0.0222
5,CAATACTA,0.053
6,AGACGGGG,-0.11
7,TAATTATA,0.319
8,CTGAATAA,0.104
9,GGCGAAGA,-0.0414
10,CCCCTACG,-0.241
11,CCAGCTTC,-0.113
12,CGCACTAC,0.0915
13,CAAGGATA,-0.0487
14,ACCACTTG,-0.0907
15,CACGGTAG,-0.149
16,GTCGTTAA,0.011
17,CATTATGA,0.0981
18,CACTAGTG,0.0655
19,AGCCCCTC,0.072
20,CCCAAAAC,0.194
21,GACGGATA,0.141
22,ATCGCTTA,-0.12
23,TGCACTAA,0.0567
24,CGGGGGAG,-0.372
25,AGATTCGG,0.063

# Already shown: an excerpt of the list.
row,Sequence,PBM E-score
4,CAGTCATG,-0.0222
5,CAATACTA,0.053
6,AGACGGGG,-0.11
7,TAATTATA,0.319
8,CTGAATAA,0.104
9,GGCGAAGA,-0.0414

# Taken from above.
# CATTCTAC | PBM E-score: 0.0655
# CTTAGAAG | PBM E-score: -0.0649
# CCAGCTTC | PBM E-score: -0.113
# CATTATGA | PBM E-score: 0.0981
# CAGTCATG | PBM E-score: -0.0222
# AACGACTT | PBM E-score: -0.169
# AGACGGGG | PBM E-score: -0.11

# Next part.

row,Sequence,PBM E-score
1,AGCACATC,0.0162
2,GAGTATGA,0.0724
3,ACTATTGA,0.149
4,TCCGATAA,-0.205
5,AGTGGATA,0.0393
6,GATTTTAC,-0.105
7,ACTTGAGC,-0.295
8,ACATGAGT,-0.123
9,CCTATATC,0.0227
10,AATTCCTC,0.0114
11,GTCGTGGA,-0.103
12,CTCGAAGC,-0.0814
13,CGAAATAG,0.0167
14,ACCAGGAG,0.084
15,ACAAGACC,-0.181
16,AAGTAGAA,0.0341
17,AGAGGTAC,-0.0262
18,TCTGCGCA,0.115
19,CTCATAAG,-0.0657
20,CGTCCGAC,-0.166
21,CATCCCCC,-0.261
22,GACGAAGC,-0.0852
23,GGAACGAC,-0.259
24,CTAATAGA,0.0351
25,GCCGCGAA,-0.0435

row,Sequence,PBM E-score
1,ATATAGTA,0.155
2,ATCAGTTG,0.122
3,GATCTTGC,0.104
4,CGACCAGA,-0.0372
5,CTTCCATC,-0.137
6,GAGCGATC,-0.0196
7,TCGGCAAA,-0.0772
8,ATCGCACG,-0.137
9,GACATAGC,0.00058
10,AAGCGCGA,0.1
11,ACCAAGGA,-0.0125
12,ATCGGGGC,-0.0344
13,ACTCTCCC,-0.0739
14,AATAGACT,-0.0747
15,ATAACCCC,0.0685
16,CCGTGTAC,0.0899
17,CAGTACTA,0.0797
18,ACATCTCT,-0.0152
19,CTAGCTTC,0.0751
20,AACATTTG,0.018
21,GGCAAAAA,0.2
22,AAAACGCG,0.285
23,AGTCGTCA,-0.152
24,ACCACCTC,0.0373
25,TGGCCAAA,-0.0346

row,Sequence,PBM E-score
1,CCCTACAA,0.169
2,GGAGGGTA,0.0877
3,CGCCAGTA,-0.0877
4,CAGTTTCC,0.0862
5,GATTCGCC,0.155
6,AAGGTCCG,-0.0532
7,GATCGTAC,-0.0711
8,ACCGGAGC,-0.224
9,AAGCAGGT,-0.109
10,CGGCATCC,-0.0713
11,CAACCTCG,0.146
12,CGAATACG,0.119
13,CGTATACC,-0.137
14,TAGAGGGA,-0.221
15,CTGTAAAC,-0.18
16,ACGCCACA,0.0755
17,CTTCCCTC,-0.154
18,ACCTCCCT,0.0348
19,AGTAAGTC,-0.0316
20,AATCCCGC,0.205
21,CCAATCTA,0.0273
22,CTATCTAC,0.00786
23,GCCTGACA,-0.173
24,TGGAGAAA,-0.00343
25,TACCAACA,-0.00283

row,Sequence,PBM E-score
1,TCTGTGCA,0.134
2,GGTCAACC,-0.121
3,CCTCAGCC,-0.0964
4,GAATCGTA,0.0106
5,AGCTTTAA,0.0501
6,GAGAGCAA,-0.078
7,GCTAAACC,-0.258
8,AGATTACA,-0.0219
9,ACTAAGAC,-0.158
10,GTTCGCGA,0.0981
11,CTCGTCAA,-0.037
12,CTGTCCCA,-0.216
13,GAGCCGCC,-0.0798
14,AGTTATAC,0.00861
15,ACCGAGAC,0.0453
16,GCATGTCA,0.0509
17,GCTTCAAC,0.00148
18,CGTCGAAA,0.075
19,CCCTCCGG,-0.269
20,GGCCGAAC,-0.172
21,AATTTTGG,0.0507
22,AAATAACC,-0.0181
